# Paper doi:10.1101/483925
# Amino acid sequences for entries named in this document (tags omitted).
# UniProt Q9SXZ2: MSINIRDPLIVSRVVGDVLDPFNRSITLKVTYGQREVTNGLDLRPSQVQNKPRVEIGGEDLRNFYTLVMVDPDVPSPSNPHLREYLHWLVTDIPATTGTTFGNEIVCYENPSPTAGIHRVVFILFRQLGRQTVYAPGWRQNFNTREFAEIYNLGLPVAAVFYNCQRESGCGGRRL
# Results are given in words; binding and its absence hold for the method and conditions named.
# Target: T1, FD-C, wild-type C-terminal domain of FD (amino acids 203-285) (Arabidopsis thaliana) (UniProt Q84JK2)
# T1 sequence: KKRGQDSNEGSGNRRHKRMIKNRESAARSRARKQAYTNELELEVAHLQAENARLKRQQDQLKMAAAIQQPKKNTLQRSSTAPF
# Test: native gel or EMSA
sequence,measurement,value
FLOWERING LOCUS T (FT) (from UniProt Q9SXZ2 1-175),binding,no binding
